According to article PMC5542696:
No constants are given. Whether binding was seen depends on the method and setting. In cells and extracts the contact can be indirect. Some results given as binding are weak or reduced against the parent protein; the word gives no strength. Tags and fused reporters may be left off the sequences shown.

What was measured:
[1] = molecular target: T1, Rluc8-OGT (O-GlcNAc transferase fused to Renilla luciferase Rluc8) (UniProt O15294); test: co-IP; HEK-293T cells co-transfected with Rluc8-OGT, YFP-OGA and control or Tax plasmid; lysate immunoprecipitated with anti-OGT antibody; OGA found in the immune complex by its enzymatic activity and YFP fluorescence
T1 sequence: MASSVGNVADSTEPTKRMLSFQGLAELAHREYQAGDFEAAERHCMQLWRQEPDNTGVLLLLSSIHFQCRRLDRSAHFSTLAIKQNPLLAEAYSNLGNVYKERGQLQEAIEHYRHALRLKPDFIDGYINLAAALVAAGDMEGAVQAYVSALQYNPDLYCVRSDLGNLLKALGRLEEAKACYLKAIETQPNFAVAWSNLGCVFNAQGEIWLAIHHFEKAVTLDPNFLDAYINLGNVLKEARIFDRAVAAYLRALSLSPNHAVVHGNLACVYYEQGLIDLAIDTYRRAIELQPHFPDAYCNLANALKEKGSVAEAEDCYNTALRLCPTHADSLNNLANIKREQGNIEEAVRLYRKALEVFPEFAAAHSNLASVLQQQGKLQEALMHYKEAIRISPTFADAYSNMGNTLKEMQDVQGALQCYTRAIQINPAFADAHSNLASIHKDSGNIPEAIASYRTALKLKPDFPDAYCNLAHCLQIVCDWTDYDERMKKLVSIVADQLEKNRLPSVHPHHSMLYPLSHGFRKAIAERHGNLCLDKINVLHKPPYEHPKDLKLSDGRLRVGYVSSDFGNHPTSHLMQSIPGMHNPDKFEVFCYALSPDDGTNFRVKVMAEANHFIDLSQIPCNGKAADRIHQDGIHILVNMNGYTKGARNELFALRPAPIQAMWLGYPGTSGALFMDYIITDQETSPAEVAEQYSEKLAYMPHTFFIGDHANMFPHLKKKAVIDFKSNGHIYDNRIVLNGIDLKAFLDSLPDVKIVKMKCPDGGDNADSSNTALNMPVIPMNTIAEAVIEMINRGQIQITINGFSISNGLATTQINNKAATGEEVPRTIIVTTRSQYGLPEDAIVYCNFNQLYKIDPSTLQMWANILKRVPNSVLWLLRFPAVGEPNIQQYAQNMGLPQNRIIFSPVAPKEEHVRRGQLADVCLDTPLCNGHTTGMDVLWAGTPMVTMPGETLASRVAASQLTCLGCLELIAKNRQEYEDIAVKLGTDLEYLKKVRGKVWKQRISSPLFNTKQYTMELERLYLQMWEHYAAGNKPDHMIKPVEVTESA

[2] = molecular target: T1, Rluc8-OGT (O-GlcNAc transferase fused to Renilla luciferase Rluc8); test: FRET or BRET; BRET saturation assay in living HEK-293T cells: constant Rluc8-OGT cDNA (300 ng/well), increasing OGA-YFP cDNA (10 to 1000 ng/well), with control or Tax plasmid; 48 h after transfection; curves fitted for a single binding site
[3] = molecular target: T1, Rluc8-OGT (O-GlcNAc transferase fused to Renilla luciferase Rluc8); test: FRET or BRET; living HEK-293T cells co-transfected with 300 ng of each cDNA (Rluc8 fusion as donor, YFP or YPet fusion as acceptor); BRET 48 h after transfection, in PBS with 5 uM coelenterazine, read at 485 and 530 nm; for OGT/OGA with control or Tax plasmid

Measured: binding

B1: YFP-OGA (O-GlcNAcase fused to YFP) (enzyme, UniProt O60502 1-916)
chain: MVQKESQATLEERESELSSNPAASAGASLEPPAAPAPGEDNPAGAGGAAVAGAAGGARRFLCGVVEGFYGRPWVMEQRKELFRRLQKWELNTYLYAPKDDYKHRMFWREMYSVEEAEQLMTLISAAREYEIEFIYAISPGLDITFSNPKEVSTLKRKLDQVSQFGCRSFALLFDDIDHNMCAADKEVFSSFAHAQVSITNEIYQYLGEPETFLFCPTEYCGTFCYPNVSQSPYLRTVGEKLLPGIEVLWTGPKVVSKEIPVESIEEVSKIIKRAPVIWDNIHANDYDQKRLFLGPYKGRSTELIPRLKGVLTNPNCEFEANYVAIHTLATWYKSNMNGVRKDVVMTDSEDSTVSIQIKLENEGSDEDIETDVLYSPQMALKLALTEWLQEFGVPHQYSSRQVAHSGAKASVVDGTPLVAAPSLNATTVVTTVYQEPIMSQGAALSGEPTTLTKEEEKKQPDEEPMDMVVEKQEETDHKNDNQILSEIVEAKMAEELKPMDTDKESIAESKSPEMSMQEDCISDIAPMQTDEQTNKEQFVPGPNEKPLYTAEPVTLEDLQLLADLFYLPYEHGPKGAQMLREFQWLRANSSVVSVNCKGKDSEKIEEWRSRAAKFEEMCGLVMGMFTRLSNCANRTILYDMYSYVWDIKSIMSMVKSFVQWLGCRSHSSAQFLIGDQEPWAFRGGLAGEFQRLLPIDGANDLFFQPPPLTPTSKVYTIRPYFPKDEASVYKICREMYDDGVGLPFQSQPDLIGDKLVGGLLSLSLDYCFVLEDEDGICGYALGTVDVTPFIKKCKISWIPFMQEKYTKPNGDKELSEAEKIMLSFHEEQEVLPETFLANFPSLIKMDIHKKVTDPSVAKSMMACLLSSLKANGSRGAFCEVRPDDKRILEFYSKLGCFEIAKMEGFPKDVVILGRSL
binds: [1] | [2] | [3]
